Test results from patent US20250382657A1, “METHODS FOR MAPPING BINDING SITES OF COMPOUNDS” (Cambridge Enterprise Limited, priority 2022, published 2025).

Test system: U2OS cells
Assay: Cell imaging of nuclear enrichment (fluorescence microscopy)
Type: cell-based, human
Settings: live U2OS cells, 1 μM, 6 hs

| Compound | cellular localisation |
| --- | --- |
| COc1cccc2c1C(=O)c1c(O)c3c(c(O)c1C2=O)C[C@@](O)(C(=O)COC(=O)CCCC(=O)NCCOCCOCCOCCOCCNC(=O)CCCC[C@H]1SC[C@H]2NC(=O)N[C@H]21)C[C@@H]3O[C@H]1C[C@H](N)[C@H](O)[C@H](C)O1 [Dox-bio1] | predominantly accumulated in the nuclei |
| COc1cccc2c1C(=O)c1c(O)c3c(c(O)c1C2=O)C[C@@](O)(C(=O)CO)C[C@@H]3O[C@H]1C[C@H](NC(=O)CCOCCOCCOCCOCCNC(=O)CCCC[C@@H]2SC[C@@H]3NC(=O)N[C@@H]32)[C@H](O)[C@H](C)O1 [Dox-bio2] | mainly located in the cytoplasm |
| COc1cccc2c1C(=O)c1c(O)c3c(c(O)c1C2=O)C[C@@](O)(C(=O)CO)C[C@@H]3O[C@H]1C[C@H](N)[C@H](O)[C@H](C)O1 [doxorubicin] | predominantly accumulated in the nuclei |
